The list shows a part of the results. For some of these results: The exact form of the protein is not confirmed.

The chains behind the UniProt entries cited, without tags or fusion partners. Where a name states a change or a piece, a line headed by the entry shows the natural chain unless it says otherwise.
UniProt P54578: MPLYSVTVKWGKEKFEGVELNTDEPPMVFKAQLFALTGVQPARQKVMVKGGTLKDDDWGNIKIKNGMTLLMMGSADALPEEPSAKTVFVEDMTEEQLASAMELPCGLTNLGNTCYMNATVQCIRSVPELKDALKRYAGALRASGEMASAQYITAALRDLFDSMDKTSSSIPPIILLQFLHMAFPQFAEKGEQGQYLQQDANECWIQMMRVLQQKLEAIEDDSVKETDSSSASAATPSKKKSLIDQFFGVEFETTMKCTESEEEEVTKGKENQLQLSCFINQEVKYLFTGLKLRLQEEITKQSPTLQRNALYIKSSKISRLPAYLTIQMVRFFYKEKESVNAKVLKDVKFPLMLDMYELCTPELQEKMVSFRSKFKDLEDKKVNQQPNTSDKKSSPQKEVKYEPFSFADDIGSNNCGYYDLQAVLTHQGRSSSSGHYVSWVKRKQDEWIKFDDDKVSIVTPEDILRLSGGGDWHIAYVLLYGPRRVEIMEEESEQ

What all share (assay): protein microarray (ProtoArray v5.0), streptavidin-Alexa Fluor 647
What all share (details): 3'-biotin; 20 mM Tris (pH 7.5), 5 mM MgCl2, 100 mM KCl, 0.1% Tween-20, A/T-rich and random oligonucleotide blockers; temperature not stated; high values mean tight binding

Experiment [1] concerns USE1 (human).
The subject of experiment [2] is USH1C (human).
Experiment [3] relates to USP12 (human).
Experiment [4] deals with USP14 (UniProt P54578).
Experiment [5] relates to USP15 (human).
The test system of experiment [6] is USP3 (human).
Experiment [7] deals with USP4 (human).
Experiment [8] deals with USP47 (human).
The test system of experiment [9] is USP48 (human).
In experiment [10] the target is T1, USP5 (UniProt P45974).
T1 sequence: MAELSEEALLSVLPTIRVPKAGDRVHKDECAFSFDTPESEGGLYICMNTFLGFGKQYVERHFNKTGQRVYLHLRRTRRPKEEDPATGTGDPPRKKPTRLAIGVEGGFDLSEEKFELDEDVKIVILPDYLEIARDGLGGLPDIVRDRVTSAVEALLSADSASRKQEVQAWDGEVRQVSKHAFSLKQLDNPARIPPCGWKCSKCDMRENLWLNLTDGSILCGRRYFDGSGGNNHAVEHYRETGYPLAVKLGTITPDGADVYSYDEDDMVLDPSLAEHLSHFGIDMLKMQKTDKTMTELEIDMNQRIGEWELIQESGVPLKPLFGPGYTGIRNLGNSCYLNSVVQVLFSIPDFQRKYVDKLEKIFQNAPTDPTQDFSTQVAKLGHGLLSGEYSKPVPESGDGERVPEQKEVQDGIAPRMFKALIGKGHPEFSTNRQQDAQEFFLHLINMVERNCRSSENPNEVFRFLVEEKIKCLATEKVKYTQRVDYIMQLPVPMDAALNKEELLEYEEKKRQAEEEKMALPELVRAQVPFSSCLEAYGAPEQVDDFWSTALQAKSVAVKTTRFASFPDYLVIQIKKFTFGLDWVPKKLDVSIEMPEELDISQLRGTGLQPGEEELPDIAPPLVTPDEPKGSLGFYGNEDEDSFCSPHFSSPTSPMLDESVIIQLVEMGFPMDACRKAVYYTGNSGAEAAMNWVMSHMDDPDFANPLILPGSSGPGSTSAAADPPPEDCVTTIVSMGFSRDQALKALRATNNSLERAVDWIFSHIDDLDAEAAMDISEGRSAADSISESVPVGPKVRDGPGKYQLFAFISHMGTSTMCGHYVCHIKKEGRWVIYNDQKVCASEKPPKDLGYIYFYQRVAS

Regarding “GGGAGGCTGAGGCAGG [G4-1 biotinylated (PQS2)]”, the binding signal in [1] was -0.339 z-score; in [2] it was -0.264 z-score; in experiment [3], -0.281 z-score; in experiment [4] it was -0.286 z-score; in experiment [5], -0.334 z-score; in experiment [6], -0.311 z-score. Further, the binding signal in [7] was -0.331 z-score; in experiment [8], -0.331 z-score; in experiment [9], -0.356 z-score; in experiment [10] it was -0.331 z-score.
